This note sets out measurements from the supplement of paper PMC7889204.

This is one part of the list. Many values rest on one well or one pass, so single values are uncertain.

In the experiment the test system is C6. The experiment in a line: cell mass (Coomassie absorbance) after combination of library compound with HMBA, relative to vehicle control (fraction); higher = more remaining cells (less growth inhibition).
Turning to `COC(=O)Nc1ccc(-c2nc(N3CCOCC3)c3cnn(C4CCN(C(=O)OC)CC4)c3n2)cc1` + CC(=O)NCCCCCCNC(C)=O [hexamethylene bisacetamide], the cell mass stood at 0.427.

Take `Cc1csc(-c2nnc(Nc3ccc(Oc4ncccc4-c4ccnc(N)n4)cc3)c3ccccc23)c1` + CC(=O)NCCCCCCNC(C)=O [hexamethylene bisacetamide]: the cell mass worked out at 0.414.

Regarding `CC1(C)CC(=O)c2c(C(F)(F)F)nn(-c3ccc(C(N)=O)c(N[C@H]4CC[C@H](O)CC4)c3)c2C1` + CC(=O)NCCCCCCNC(C)=O [hexamethylene bisacetamide], the cell mass was found to be 0.288.

Take `CN(C)Cc1cccc(N/C(=C2\C(=O)Nc3cc(C(N)=O)ccc32)c2ccccc2)c1` + CC(=O)NCCCCCCNC(C)=O [hexamethylene bisacetamide]: the cell mass was 0.797. Take `N#CC[C@H](C1CCCC1)n1cc(-c2ncnc3[nH]ccc23)cn1` + CC(=O)NCCCCCCNC(C)=O [hexamethylene bisacetamide]: the cell mass worked out at 0.537.

With `C[C@@H]1CN(CC(=O)Nc2ccc3c(c2)Cc2cccc(-c4cc(=O)cc(N5CCOCC5)o4)c2S3)C[C@H](C)O1` + CC(=O)NCCCCCCNC(C)=O [hexamethylene bisacetamide], the cell mass turned out to be 0.68.

`O=C(Nc1ccc(OC(F)(F)F)cc1)c1sccc1NCc1ccnc2ccccc12` + CC(=O)NCCCCCCNC(C)=O [hexamethylene bisacetamide]: the cell mass came to 0.349. On to `CCCCCOC(=O)Nc1nc(=O)n([C@@H]2O[C@H](C)[C@@H](O)[C@@H]2O)cc1F` [Capecitabine(Xeloda)] + CC(=O)NCCCCCCNC(C)=O [hexamethylene bisacetamide], for which the cell mass came to 0.436. Consider `CC(C)(C)C#Cc1cc(N(C(=O)[C@H]2CC[C@H](C)CC2)[C@H]2CC[C@H](O)CC2)c(C(=O)O)s1` + CC(=O)NCCCCCCNC(C)=O [hexamethylene bisacetamide], for which the cell mass came out at 1.02.

With `COc1cc(Nc2ncc(F)c(Nc3ccc4c(n3)NC(=O)C(C)(C)O4)n2)cc(OC)c1OC` + CC(=O)NCCCCCCNC(C)=O [hexamethylene bisacetamide], the cell mass amounted to 0.548.
